This test is described as follows: qHTS Assay for Lipid Storage Modulators in Drosophila S3 Cells.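 On cell number change: cells counted by Cell Tracker Red CMTPX staining in the red channel.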 Particulars: BODIPY lipid droplet fluorescence, 18-24 h; for cell number change: measured here: cell count max response, cells fed with added oleic acid. An outline of the steps:
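Drosophila S3 cells loaded with oleic acid (400 uM, as added) and compounds at several concentrations; lipid droplets imaged by 488-nm laser-scanning cytometry, 500–530 nm intensity and object ratio to cell channel. Percent activity normalized to 20 uM Triacsin C.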

Where [1] appears, read: measured here: lipid fluorescence (Fed channel) AC50, cells fed with added oleic acid.
The mark [2] stands for this setting: measured here: cell number channel AC50, cells fed with added oleic acid.

The structures appear in SMILES notation. This is one part of the list. These are further read-outs of the screen, such as a control signal, another cell line or another target. No call is given for them. Most of these compounds were active or inconclusive in the main read-out, so they are no random draw. The note in brackets gives the kind of curve behind each potency; many fits are weak.

Consider `CC(C)[C@H](NC(=O)c1ccccc1)C(=O)Nc1cccc(S(=O)(=O)N2CCOCC2)c1`, for which the cell number change came to 12.2%. Further, the half-maximal activity concentration (AC50) under setting [1] is 16.4 µM [falling, single point]. With `Cc1ccc(-c2nnc(N3CCN(CCO)CC3)c3ccccc23)cc1`, the cell number change amounted to 29.4%. Moreover, the AC50 under setting [1] was 29.1 µM [rising, partial curve, poor fit]. On to `CCOc1ccc(N2CC(O)=C(c3nc4ccccc4c(=O)[nH]3)C2=N)cc1`, for which the concentration at half-maximal activity (AC50) under setting [2] was 0.411 µM [rising, partial curve, poor fit].

For `COc1ccc(/C=N/N(C(C)=O)c2nc(-c3ccc(C)cc3)cs2)cc1`, the cell number change was -3.31%. Also, the AC50 under setting [2] is 2.06 µM [falling, partial curve, poor fit]. Moreover, under setting [1], the AC50 is 2.06 µM [falling, partial curve]. Take `CCCc1cc(=O)oc2cc(OCC(=O)Nc3ccc(CN4CCOCC4)cc3)c(Cl)cc12`: the cell number change is 7.65%. Moreover, under setting [2], the AC50 was 0.82 µM [rising, partial curve, poor fit]. Also, under setting [1], the AC50 was 2.06 µM [rising, partial curve]. Turning to `O=C(COc1ccc(F)cc1)Nc1ccc2c(c1)OCCO2`, the cell number change worked out at 34.7%. Also, the AC50 under setting [2] was 35.5 µM [rising, single point]. In addition, the AC50 under setting [1] is 20 µM [rising, partial curve, poor fit]. As for `CN1C(=O)/C(=C/c2ccc3c(c2)OCO3)N=C1c1ccccc1`, the cell number change is 5.39%. For the same compound, the half-maximal activity concentration (AC50) under setting [1] is 1.84 µM [rising, partial curve, poor fit]. Regarding `NC(=O)c1cccc(N=Cc2cc(Cl)cc(Cl)c2O)c1`, the cell number change is 47.4%.

In the case of `O=C(CCS(=O)(=O)c1ccccc1Cl)Nc1ccc(S(=O)(=O)Nc2ncccn2)cc1`, the AC50 under setting [1] is 29.1 µM [rising, single point]. In the case of `COc1ccccc1NC(=O)COc1ccccc1`, the cell number change was 8.26%. Further, the AC50 under setting [1] is 0.231 µM [rising, full curve, poor fit]. Turning to `CCCCNC(=O)/C(C#N)=C/c1ccc2c(c1)OCCO2`, the cell number change was -20.1%. Besides, under setting [1], the AC50 is 20.6 µM [falling, single point]. Regarding `Cc1cc(C)n(C(=O)C(C)N2C(=O)c3ccccc3C2=O)n1` (configuration not stated), the cell number change is 2.07%.

In the case of `COc1cc(C(=O)Nc2c(C)cc(C)cc2C)c(Br)c(OC)c1OC`, the AC50 was 6.51 µM [rising, single point] under setting [2] and 2.06 µM [rising, partial curve] under setting [1]. For `Cc1cccc(S(=O)(=O)c2c(N)n(Cc3ccco3)c3nc4ccccc4nc23)c1`, the cell number change amounted to 0.194%. In addition, under setting [1], the AC50 was 0.731 µM [rising, partial curve]. As for `CCC(CC)CN1C(Nc2ccccc2)=NC[C@@H]1CC(C)C`, the cell number change was -6.59%. Take `CCc1ccccc1N1CSC2=C(C#N)C(c3cc(OC)c(OC)cc3OC)CC(=O)N2C1` (configuration not stated): the cell number change is -19.9%. On to `Cn1c(=O)c2c(-c3ccccc3)n(Cc3ccccn3)cc2n(C)c1=O`, for which the cell number change is 0.5%. The AC50 under setting [2] was 0.13 µM [falling, full curve]. With `COc1ccc(C)cc1S(=O)(=O)Nc1ccc2c(c1)N(C(C)=O)CCC2`, the cell number change is -20.9%. Under setting [2], the AC50 was 2.06 µM [rising, partial curve, poor fit].

Turning to `CCN(CC(=O)NCC(=O)Nc1ccc(Br)cc1C)Cc1ccccc1`, the AC50 is 1.03 µM [rising, partial curve] under setting [2] and 1.03 µM [rising, partial curve] under setting [1]. Consider `Cc1cc(=O)[nH]c2c(N=Nc3ccc(O)cc3)c(N)nn12`, for which the cell number change turned out to be 3.82%. Also, the AC50 under setting [1] was 0.731 µM [rising, single point]. Take `COc1ccc(-n2c(-c3ccc(Br)cc3)c[n+]3c2CCc2ccccc2-3)cc1`: the cell number change was -72.9%. Further, under setting [2], the AC50 is 11.6 µM [falling, partial curve]. Also, under setting [1], the AC50 was 9.2 µM [falling, partial curve, poor fit].

With `Cc1ccc(-n2c(-c3ccc(Cl)cc3Cl)n[nH]c2=S)cc1`, the cell number change was determined as 14.7%.

For the compound `CCOC(=O)C(NC(=O)c1ccccc1)(N1CCCC1=O)C(F)(F)F` (configuration not stated), the cell number change was -7.24%. Under setting [1], the AC50 was 0.0731 µM [rising, full curve, poor fit]. On to `CCC(Oc1ccccc1)C(=O)Nc1ccc(S(=O)(=O)Nc2cc(C)on2)cc1` (configuration not stated), for which the cell number change was 24.4%. Moreover, under setting [1], the concentration at half-maximal activity (AC50) was 0.103 µM [falling, full curve, poor fit]. With `C=C(C)C1CCC(C)=C1COC(=O)Nc1ccccc1` (configuration not stated), the cell number change was -42.5%. Further, the AC50 under setting [1] was 11.6 µM [falling, partial curve, poor fit].

With `O=C(O)C1CCCN(C(=O)NCc2ccccc2)C1` (configuration not stated), the cell number change was -50.7%. Besides, the AC50 under setting [2] was 20.6 µM [falling, partial curve]. The AC50 under setting [1] was 29.1 µM [falling, single point]. Consider `CC(=O)NN1C(=O)/C(=C\c2ccc(O)cc2)SC1=S`, for which the cell number change is 4.77%. The AC50 under setting [1] is 0.651 µM [rising, single point].

Consider `CC(C)C(c1nnnn1C1CCCC1)N1CCCc2ccccc21` (configuration not stated), for which the cell number change is -23.5%. Also, the AC50 under setting [1] is 29.1 µM [falling, single point].

Consider `CCOC(=O)C1=C(CSc2nc(-c3ccccc3)ccc2C#N)OC(N)=C(C#N)C1c1ccccc1` (configuration not stated), for which the AC50 is 1.64 µM [rising, partial curve] under setting [2] and 2.31 µM [rising, partial curve] under setting [1]. Take `COC(=O)c1c(-n2c(C)cc(C=O)c2C)sc2c1CCCC2`: the cell number change is -24.5%. Also, the AC50 under setting [2] is 3.66 µM [falling, full curve, poor fit]. Further, the AC50 under setting [1] is 3.66 µM [falling, full curve].

With `COc1cc2c(cc1OC)CN(CC(=O)Nc1ccc3c(c1)OCO3)CC2`, the cell number change was -5.57%. Besides, the concentration at half-maximal activity (AC50) under setting [1] was 0.82 µM [falling, full curve]. In the case of `O=C(COc1coc(CN2CCc3ccccc32)cc1=O)NCCc1ccccc1`, under setting [2], the AC50 was 1.84 µM [rising, partial curve, poor fit]. With `O=C(Oc1ccc2ccc(=O)oc2c1)c1cccs1`, the cell number change was -48.3%. Also, the AC50 under setting [2] was 9.2 µM [falling, partial curve, poor fit]. Moreover, under setting [1], the AC50 was 6.51 µM [falling, single point]. Consider `COc1ccc(/C=N/OCC(=O)N=Nc2c(O)[nH]c3ccc(Br)cc23)cc1OC`, for which the cell number change is -53.1%. Further, the AC50 under setting [2] was 0.82 µM [falling, partial curve]. For the same compound, under setting [1], the AC50 is 18.4 µM [falling, single point].

With `Cc1ccc(C(=O)Nc2ccc(Oc3ccc(C(=O)O)c(C(=O)O)c3)cc2)cc1C`, the cell number change is 13.9%. As to `Cc1ccc2c(c1)[nH]c1c(=O)n(CCN3CCNCC3)cnc12`, the cell number change came out at 0.559%. Moreover, the AC50 under setting [1] is 0.92 µM [falling, partial curve]. Consider `Cc1ccc(NC(=O)Cn2c(=O)oc3ccccc32)c(C)c1`, for which the cell number change is -5.87%.

As for `O=C(CSc1nc2nc3c(cc2c(=O)n1-c1ccccc1)CCCC3)Nc1cccc2ccccc12`, the cell number change turned out to be 11.7%. The AC50 under setting [1] is 7.31 µM [rising, single point]. With `Cc1cc(=O)[nH]c(SCC(=O)Nc2c(C)n(C)n(-c3ccccc3)c2=O)c1C#N`, the cell number change worked out at 4.73%. For the same compound, under setting [1], the AC50 was 0.517 µM [falling, full curve, poor fit].

For `O=C(COc1ccc(Br)cc1)NCCN1CCCC1`, the cell number change is -2.19%. In the case of `Cc1cccc(OCCCCCNCCO)c1`, under setting [1], the AC50 is 0.00517 µM [falling, full curve, poor fit]. Turning to `O=C(CCc1c[nH]c2ccccc12)OCc1cccc([N+](=O)[O-])c1`, the AC50 under setting [1] is 6.51 µM [falling, single point]. In the case of `CC1CCCCN1CCNC(=O)C1CCCN(S(=O)(=O)c2cccc3nsnc23)C1` (configuration not stated), the cell number change was -22.2%. The AC50 under setting [1] was 29.1 µM [rising, single point]. With `CC/C(=N\NC(=O)C1CCCC1)c1ccc(Br)cc1`, the AC50 under setting [1] was 29.1 µM [rising, single point]. For the compound `COc1ccc(C(=O)Nc2ccccc2C(=O)NCc2cccnc2)cc1OC`, the cell number change was -30.1%. Further, the AC50 under setting [2] was 0.0651 µM [falling, full curve, poor fit]. Consider `O=C(NC1CCCN(Cc2ccc(Cl)cc2)C1)c1c(F)cccc1F` (configuration not stated), for which the cell number change is -3.15%.

As for `Cc1sc(NC(=O)CSc2nnc(COc3ccccc3)n2C)c(C#N)c1C`, the cell number change is -27.1%. The concentration at half-maximal activity (AC50) under setting [1] is 1.84 µM [falling, partial curve]. As for `C#CCNC(=O)/C=C/c1ccc(OC)cc1`, the cell number change was determined as 19.6%. Under setting [1], the concentration at half-maximal activity (AC50) was 9.2 µM [rising, partial curve]. In the case of `CC(=C1C(=O)c2ccccc2C1=O)N1CCN(c2ccccn2)CC1`, the cell number change was found to be 12%.

On to `CCOc1ccccc1-c1ccc(C(=O)NCc2ccccc2)o1`, for which the cell number change was 3.74%. Moreover, the AC50 under setting [1] is 9.2 µM [rising, partial curve]. Turning to `COCC(C)n1c(C)cc(C(=O)CN2C(=O)NC(Cc3c[nH]c4ccccc34)C2=O)c1C` (configuration not stated), the cell number change is 102%. Also, the AC50 under setting [2] was 1.46 µM [rising, full curve]. In addition, under setting [1], the AC50 was 1.3 µM [rising, partial curve]. Take `COc1ccc(CC(=O)n2nc(-c3ccccc3)nc2NCc2ccco2)cc1`: the cell number change turned out to be 95.4%. Further, under setting [2], the AC50 was 29.1 µM [rising, single point]. In the case of `Cc1ccc(C)c(N2CCN(C(=O)CCCOc3cc(=O)n(C)c4ccccc34)CC2)c1`, the cell number change was -4.98%. The AC50 under setting [1] is 0.82 µM [rising, partial curve, poor fit]. With `CN1C(=O)c2ccc(NC(=O)c3cccc(N4C(=O)CCC4=O)c3)cc2C1=O`, the cell number change stood at 0.427%. Under setting [1], the AC50 is 0.398 µM [falling, single point]. Consider `Cc1c(NC(=O)CC(C)C)c(=O)n(-c2ccccc2)n1C`, for which the cell number change is 10.7%. Besides, the half-maximal activity concentration (AC50) under setting [1] was 0.0731 µM [falling, full curve, poor fit]. Consider `O=C(NN1CCOCC1)c1ccccc1Br`, for which the cell number change was found to be 2.89%. Moreover, the AC50 under setting [1] is 29.1 µM [rising, single point]. On to `COC(=O)c1ccc(NC(=O)Nc2ccc(C)cc2)cc1`, for which the cell number change was 92.1%. Under setting [2], the half-maximal activity concentration (AC50) is 2.31 µM [rising, partial curve]. Further, the AC50 under setting [1] is 1.84 µM [rising, partial curve]. As to `COc1ccccc1-c1sc2cc3c(cc2c1C#Cc1ccccn1)OCO3`, the cell number change turned out to be 16.9%. For the same compound, the AC50 under setting [1] was 0.00731 µM [rising, full curve, poor fit]. `O=C(NCCN1CCOCC1)/C(=C\c1ccc(Br)cc1)NC(=O)c1cccs1`: the cell number change came out at 19.4%. The AC50 under setting [1] was 1.84 µM [rising, partial curve].
